Experiment [1] addresses CD137 (4-1BB), stably transfected in Jurkat cells (UniProt Q07011). Description: affinity purification with mass spectrometry; CD137 stably transfected Jurkat cells, MG132, stimulated on CD137L-Fc-coated plates 15 min; 1% Brij96 lysates; IP with anti-CD137 6B4 on magnetic microbeads against control IgG; LC-MS/MS.
Experiment [2] addresses CD137 (4-1BB, TNFRSF9) (human (endogenous in primary CD8 T cells)) (UniProt Q07011). Description: affinity purification with mass spectrometry; preactivated primary human CD8 T cells, MG132, resting or 15 min at 37°C on plates coated with CD137L, anti-CD3 or both (part left on ice); 1% Brij96 lysates; IP with anti-CD137 6B4 on magnetic microbeads against control IgG; tryptic digest, LC-MS/MS.

By UniProt entry, the sequences of proteins in these tests, tags left out. Residues count along the entry.
UniProt Q07011, residues 24-255: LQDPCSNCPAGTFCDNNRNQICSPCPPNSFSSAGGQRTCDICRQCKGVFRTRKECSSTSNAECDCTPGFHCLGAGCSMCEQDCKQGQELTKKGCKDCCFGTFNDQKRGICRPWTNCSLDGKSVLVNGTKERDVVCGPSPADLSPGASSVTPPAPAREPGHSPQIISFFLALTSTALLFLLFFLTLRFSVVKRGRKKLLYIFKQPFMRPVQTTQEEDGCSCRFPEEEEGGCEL
UniProt Q13114: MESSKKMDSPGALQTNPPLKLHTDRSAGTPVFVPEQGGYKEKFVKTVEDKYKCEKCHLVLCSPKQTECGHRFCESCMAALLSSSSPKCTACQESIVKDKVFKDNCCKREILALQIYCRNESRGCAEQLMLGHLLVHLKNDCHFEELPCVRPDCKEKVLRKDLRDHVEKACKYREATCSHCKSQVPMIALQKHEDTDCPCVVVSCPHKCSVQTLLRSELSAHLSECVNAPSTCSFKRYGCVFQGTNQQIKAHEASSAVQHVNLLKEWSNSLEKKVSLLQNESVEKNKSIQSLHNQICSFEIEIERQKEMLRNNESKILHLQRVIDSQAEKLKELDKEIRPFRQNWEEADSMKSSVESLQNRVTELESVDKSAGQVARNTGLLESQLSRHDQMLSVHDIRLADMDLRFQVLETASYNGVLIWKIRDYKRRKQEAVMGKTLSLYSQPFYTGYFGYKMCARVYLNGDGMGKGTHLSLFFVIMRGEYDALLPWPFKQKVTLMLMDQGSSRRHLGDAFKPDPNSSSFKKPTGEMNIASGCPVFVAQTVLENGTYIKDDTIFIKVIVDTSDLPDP
UniProt Q96EP0: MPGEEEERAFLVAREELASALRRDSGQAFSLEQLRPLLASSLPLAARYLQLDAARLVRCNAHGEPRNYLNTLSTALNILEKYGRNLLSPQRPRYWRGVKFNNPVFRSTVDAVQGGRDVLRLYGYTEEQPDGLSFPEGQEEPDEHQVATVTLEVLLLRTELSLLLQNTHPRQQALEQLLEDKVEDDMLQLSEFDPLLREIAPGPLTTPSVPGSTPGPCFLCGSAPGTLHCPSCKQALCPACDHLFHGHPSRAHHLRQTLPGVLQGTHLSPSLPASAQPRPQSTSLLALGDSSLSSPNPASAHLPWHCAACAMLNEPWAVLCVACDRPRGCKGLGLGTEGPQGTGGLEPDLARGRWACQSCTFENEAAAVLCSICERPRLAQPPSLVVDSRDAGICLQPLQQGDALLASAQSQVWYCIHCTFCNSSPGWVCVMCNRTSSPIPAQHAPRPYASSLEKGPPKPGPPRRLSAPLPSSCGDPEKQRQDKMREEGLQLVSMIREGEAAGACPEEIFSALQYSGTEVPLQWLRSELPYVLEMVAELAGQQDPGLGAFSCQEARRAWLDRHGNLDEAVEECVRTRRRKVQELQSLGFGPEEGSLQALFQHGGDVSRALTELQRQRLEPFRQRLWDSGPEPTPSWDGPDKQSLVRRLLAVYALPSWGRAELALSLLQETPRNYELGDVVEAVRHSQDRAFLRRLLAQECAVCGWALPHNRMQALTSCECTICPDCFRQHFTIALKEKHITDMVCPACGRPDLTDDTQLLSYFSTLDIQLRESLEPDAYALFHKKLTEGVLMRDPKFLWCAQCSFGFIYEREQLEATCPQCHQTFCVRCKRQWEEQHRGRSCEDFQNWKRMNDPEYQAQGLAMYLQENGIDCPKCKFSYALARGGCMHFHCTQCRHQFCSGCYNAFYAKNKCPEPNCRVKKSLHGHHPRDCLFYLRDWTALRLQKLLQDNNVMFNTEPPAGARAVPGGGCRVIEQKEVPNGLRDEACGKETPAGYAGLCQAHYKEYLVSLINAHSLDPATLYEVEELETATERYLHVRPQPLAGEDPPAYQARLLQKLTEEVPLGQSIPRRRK
UniProt Q9BYM8: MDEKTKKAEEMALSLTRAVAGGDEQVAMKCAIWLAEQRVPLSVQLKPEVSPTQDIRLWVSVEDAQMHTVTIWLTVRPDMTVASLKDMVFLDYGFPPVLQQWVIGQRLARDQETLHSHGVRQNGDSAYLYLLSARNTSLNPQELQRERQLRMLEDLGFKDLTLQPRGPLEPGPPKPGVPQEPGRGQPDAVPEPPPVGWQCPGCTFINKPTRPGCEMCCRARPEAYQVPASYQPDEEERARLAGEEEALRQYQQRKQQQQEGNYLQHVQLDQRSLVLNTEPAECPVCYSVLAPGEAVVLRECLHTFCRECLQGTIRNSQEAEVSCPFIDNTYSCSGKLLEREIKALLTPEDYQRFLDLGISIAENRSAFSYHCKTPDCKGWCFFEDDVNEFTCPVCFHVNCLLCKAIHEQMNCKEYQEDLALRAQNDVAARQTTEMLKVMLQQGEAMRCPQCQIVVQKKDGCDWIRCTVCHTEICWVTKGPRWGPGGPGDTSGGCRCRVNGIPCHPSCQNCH
UniProt O00463: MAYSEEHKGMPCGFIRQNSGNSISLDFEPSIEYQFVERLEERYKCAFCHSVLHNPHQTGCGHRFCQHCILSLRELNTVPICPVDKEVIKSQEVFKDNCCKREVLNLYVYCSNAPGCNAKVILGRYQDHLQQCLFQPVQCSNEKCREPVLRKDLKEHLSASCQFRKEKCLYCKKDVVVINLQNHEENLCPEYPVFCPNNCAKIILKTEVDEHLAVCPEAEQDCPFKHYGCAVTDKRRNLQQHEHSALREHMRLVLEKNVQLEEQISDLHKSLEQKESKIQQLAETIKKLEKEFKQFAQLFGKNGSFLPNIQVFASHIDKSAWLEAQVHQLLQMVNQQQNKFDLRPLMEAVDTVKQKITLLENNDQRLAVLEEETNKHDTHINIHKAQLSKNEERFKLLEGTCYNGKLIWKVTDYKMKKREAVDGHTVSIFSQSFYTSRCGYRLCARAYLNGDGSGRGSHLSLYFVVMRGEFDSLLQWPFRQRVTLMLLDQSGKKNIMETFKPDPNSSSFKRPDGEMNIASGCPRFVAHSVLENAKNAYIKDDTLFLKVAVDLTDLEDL
UniProt Q9Y6K9: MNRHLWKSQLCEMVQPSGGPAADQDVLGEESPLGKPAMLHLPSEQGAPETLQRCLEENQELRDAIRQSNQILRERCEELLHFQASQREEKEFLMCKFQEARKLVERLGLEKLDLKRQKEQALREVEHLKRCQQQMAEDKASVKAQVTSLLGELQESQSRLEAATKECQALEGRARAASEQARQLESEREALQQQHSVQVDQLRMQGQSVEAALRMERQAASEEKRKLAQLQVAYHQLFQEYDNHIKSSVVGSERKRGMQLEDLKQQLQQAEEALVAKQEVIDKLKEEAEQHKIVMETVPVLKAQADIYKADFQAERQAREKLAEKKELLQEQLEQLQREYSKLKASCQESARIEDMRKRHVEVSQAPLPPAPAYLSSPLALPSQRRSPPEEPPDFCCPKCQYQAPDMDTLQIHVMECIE

Results are given in words; binding and its absence hold for the method and conditions named. In cells and extracts the contact can be indirect. Here binding means that the protein was enriched with, or labelled near, the bait; the list need not be complete.

On to TRAF3 (from UniProt Q13114 1-568), for which the binding entry in experiment [1] and in experiment [2] was “binds” throughout.

On to HOIP (from UniProt Q96EP0 1-1072), for which, in experiment [2], the binding result is recorded as “binds”. In the case of HOIL-1 (from UniProt Q9BYM8 1-510), in experiment [2], the binding entry is recorded as “binds”. In the case of TRAF5 (from UniProt O00463 1-557), the binding result in experiment [1] and in experiment [2] was “binds” in each case. Turning to NEMO (from UniProt Q9Y6K9 1-419), the binding result in experiment [2] is “binds”.

The values above are taken from paper PMC11044178.
